Laboratory results from PubChem BioAssay AID540256 (National Center for Advancing Translational Sciences (NCATS), 2011).
Out of some 300,000 compounds screened, about 3,700 (1.2%) were called active. Inconclusive means that the source gave no clear call. Such entries were picked first, then a sample of the others. The call rests on the fitted dose curve; tested in HEK293 cells. Potencies of inconclusive entries are doubtful fits and often do not repeat.

test: qHTS for Inhibitors of binding or entry into cells for Lassa Virus; conditions: Lassa virus pseudotype entry inhibition, cell reporter; activity change, negative = inhibition: at 37.9 µM (top of the series) unless noted; further: nearly all actives have a fitted effect of over 50% in size
On the % scale 0 is the no-effect control and ±100 the full control effect; potency means the concentration at half of the fitted maximal effect.

Row | SMILES | activity change, negative = inhibition | Potency
1 | Cc1ccc(S(=O)(=O)N2CCCCC2)cc1NC(=O)CSCC(=O)O | inactive: 4.29% | –
2 | Cc1ccc(CN2C(=O)C(O)(c3c(C)[nH]c4ccccc34)c3ccccc32)cc1 (configuration not stated) | – | inconclusive: 3.98 µM [inhibitor, single point]
3 | COc1cccc(-n2nnc3c(=O)n(Cc4ccc(Cl)cc4)cnc32)c1 | – | inconclusive: 1.03 µM [inhibitor, full curve, poor fit]
4 | Brc1ccc(NC2=Nc3ccccc3CC2)cc1 | inactive: -26.3% | –
5 | COc1ccccc1-c1nnc2n1N=C(C)CS2 | inactive: 4.14% | –
6 | COc1ccc(C2C(=O)N(C3CCCCC3)CC(=O)N2CCc2ccc(C)cc2)cc1OC (configuration not stated) | – | inconclusive: 5.01 µM [inhibitor, full curve, poor fit]
7 | CCC(=O)Nc1ccc(C(=O)NNC(=O)c2ccc([N+](=O)[O-])cc2)cc1 | inactive: 6.65% [at 46.1 µM] | –
8 | CC(NC(=O)c1cc(S(=O)(=O)N(C)C)ccc1Cl)C1CC2CCC1C2 (configuration not stated) | – | inconclusive: 5.62 µM [inhibitor, single point]
9 | c1ccc(CNc2ncnc3sc4c(c23)CCCC4)nc1 | inactive: 6.88% | –
10 | O=C(c1ccccc1)c1sc(N2CCOCC2)nc1-c1ccccc1 | – | inconclusive: 22.4 µM [inhibitor, partial curve, poor fit]
11 | CCn1c(/C=C2/C(=O)N(C)c3ccccc32)nc2ccccc2c1=O | – | inconclusive: 22.4 µM [inhibitor, single point]
12 | COc1ccc([N+](=O)[O-])cc1NC(c1nnc(-c2ccccc2)o1)c1ccccc1F (configuration not stated) | inactive: -2.69% [at 46.1 µM] | –
13 | Cc1ccc(N2CCN(/N=C/C=C/c3ccccc3)CC2)cc1 | – | inconclusive: 25.1 µM [activator, partial curve, poor fit]
14 | Cc1ccc(-n2nnnc2-c2ccccc2Br)cc1 | – | inconclusive: 14.1 µM [inhibitor, single point]
15 | COC(=O)c1[nH]c2ccccc2c1NC(=O)CN1CCCCCC1 | – | inconclusive: 1.83 µM [activator, partial curve, poor fit]
16 | O=C(Nc1ccc(F)cc1)NC1CCCCC1 | inactive: -14.5% | –
17 | Brc1c(C[n+]2ccccc2)nc2ccccn12 | inactive: -12.6% [at 46.1 µM] | –
18 | CN1CCC(N(C)C(=O)c2ccc(Cl)c(S(=O)(=O)N3CCOCC3)c2)CC1 | inactive: -0.33% | –
19 | O=C(CCc1ccccc1)NNC(=O)COc1ccccc1Cl | inactive: 5.5% [at 46.1 µM] | –
20 | COC(CNC(=O)c1cnn2c(C)c(Cc3ccccc3)c(C)nc12)OC | – | inconclusive: 35.5 µM [inhibitor, single point]
21 | Cc1ccccc1CNC(=O)C(=O)NCCC1CCCCN1S(=O)(=O)c1ccccc1 (configuration not stated) | inactive: -11.8% | –
22 | COCCNC(=O)c1ccccc1-c1nc(-c2ccccc2OC)no1 | – | inconclusive: 4.11 µM [activator, partial curve, poor fit]

Exported as a markdown table: part of the list above.

| Row | SMILES | activity change, negative = inhibition | Potency |
| --- | --- | --- | --- |
| 18 | CN1CCC(N(C)C(=O)c2ccc(Cl)c(S(=O)(=O)N3CCOCC3)c2)CC1 | inactive: -0.33% | – |
| 19 | O=C(CCc1ccccc1)NNC(=O)COc1ccccc1Cl | inactive: 5.5% [at 46.1 µM] | – |
